Source: patent US20150030593A1, “COMPOSITIONS OF PENETRATION-ENHANCED TARGETING PROTEINS AND METHODS OF USE” (PERMEON BIOLOGICS, INC., priority 2013, published 2015)
Some entries share one result that the patent states for a list of compounds.

System: MDA-MB-468 (Her2^Low) cells
Experiment: Flow cytometry detection of internalized GFP protein (Example 4)
Assay type: cell-based
Settings: FIG. 10B
Method: These two types of cells express different levels of Her2 protein (FIG. 8). […] MDA-MB-468 cells express very low levels of Her2 (referred to as Her2^Low) while AU565 cells express high levels of Her2 (referred to as Her2^high).
The media were replaced with serum free media containing 1 μM of a protein listed below, and incubated for 2 hours. Cells were washed 3×PBS, trypsinized, fixed with 4% PFA, washed with PBS and then analyzed by flow cytometry with detection of GFP.
Results: Flow cytometry analysis is indicative of the amount of protein internalized into the cells. FIGS. 9A and 9B show the flow cytometry data obtained for different tested samples at various conditions. The median fluorescence values obtained from the flow cytometry peak minus the median fluorescence values of untreated cells (background fluorescence) are shown in FIGS. 10A and 10B. See also Table 7. The first column indicates identifies the GFP-component of the construct used for the particular sample treatment. The second and third columns represents fluorescence in MDA-MB-468 cells following treatment with each of the GFP proteins alone (second column; examples of use of CPMs alone) or with each of the GFP-C6.5 fusion proteins (third column; examples of fusion proteins comprising a target-binding region and a CPM region). […]

sfGFP-C6.5: fusion of superfolder GFP, (S4G)6 spacer, C6.5 anti-Her2 scFv, His6
level relative to background cell fluorescence of untreated cell sample: ≤ 20%
